Data reported in the supplement of paper PMC10032668.
The list shows a part of the results. Only hits are listed; about a third recur on repeated control peptides.

Amino acid sequences for entries named in this document (tags omitted).
COX6C, P09669, UniProt P09669, whole entry: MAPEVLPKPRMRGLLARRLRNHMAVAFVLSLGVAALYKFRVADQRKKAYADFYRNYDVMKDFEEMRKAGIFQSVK
MSN, P26038, UniProt P26038, whole entry: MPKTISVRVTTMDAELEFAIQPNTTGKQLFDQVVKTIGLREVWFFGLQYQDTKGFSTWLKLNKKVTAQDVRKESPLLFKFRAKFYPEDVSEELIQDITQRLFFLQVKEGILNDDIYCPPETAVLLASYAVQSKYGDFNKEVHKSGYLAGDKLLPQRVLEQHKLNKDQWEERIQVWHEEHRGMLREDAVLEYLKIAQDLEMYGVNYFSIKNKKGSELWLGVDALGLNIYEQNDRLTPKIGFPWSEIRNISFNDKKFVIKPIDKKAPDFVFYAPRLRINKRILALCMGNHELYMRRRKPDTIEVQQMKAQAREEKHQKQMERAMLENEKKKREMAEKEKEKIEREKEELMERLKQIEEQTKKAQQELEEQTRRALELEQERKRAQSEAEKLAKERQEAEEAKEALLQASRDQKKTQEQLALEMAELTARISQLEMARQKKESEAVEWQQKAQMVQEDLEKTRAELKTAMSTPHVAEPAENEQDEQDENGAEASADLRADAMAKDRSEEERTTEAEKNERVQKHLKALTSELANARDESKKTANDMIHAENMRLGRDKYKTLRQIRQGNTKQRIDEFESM
SNRPD2, P62316, UniProt P62316, whole entry: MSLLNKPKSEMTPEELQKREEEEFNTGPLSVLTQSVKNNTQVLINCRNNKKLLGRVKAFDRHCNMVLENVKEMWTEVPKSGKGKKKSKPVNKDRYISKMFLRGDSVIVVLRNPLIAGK
EIF4G3, O43432, UniProt O43432, whole entry: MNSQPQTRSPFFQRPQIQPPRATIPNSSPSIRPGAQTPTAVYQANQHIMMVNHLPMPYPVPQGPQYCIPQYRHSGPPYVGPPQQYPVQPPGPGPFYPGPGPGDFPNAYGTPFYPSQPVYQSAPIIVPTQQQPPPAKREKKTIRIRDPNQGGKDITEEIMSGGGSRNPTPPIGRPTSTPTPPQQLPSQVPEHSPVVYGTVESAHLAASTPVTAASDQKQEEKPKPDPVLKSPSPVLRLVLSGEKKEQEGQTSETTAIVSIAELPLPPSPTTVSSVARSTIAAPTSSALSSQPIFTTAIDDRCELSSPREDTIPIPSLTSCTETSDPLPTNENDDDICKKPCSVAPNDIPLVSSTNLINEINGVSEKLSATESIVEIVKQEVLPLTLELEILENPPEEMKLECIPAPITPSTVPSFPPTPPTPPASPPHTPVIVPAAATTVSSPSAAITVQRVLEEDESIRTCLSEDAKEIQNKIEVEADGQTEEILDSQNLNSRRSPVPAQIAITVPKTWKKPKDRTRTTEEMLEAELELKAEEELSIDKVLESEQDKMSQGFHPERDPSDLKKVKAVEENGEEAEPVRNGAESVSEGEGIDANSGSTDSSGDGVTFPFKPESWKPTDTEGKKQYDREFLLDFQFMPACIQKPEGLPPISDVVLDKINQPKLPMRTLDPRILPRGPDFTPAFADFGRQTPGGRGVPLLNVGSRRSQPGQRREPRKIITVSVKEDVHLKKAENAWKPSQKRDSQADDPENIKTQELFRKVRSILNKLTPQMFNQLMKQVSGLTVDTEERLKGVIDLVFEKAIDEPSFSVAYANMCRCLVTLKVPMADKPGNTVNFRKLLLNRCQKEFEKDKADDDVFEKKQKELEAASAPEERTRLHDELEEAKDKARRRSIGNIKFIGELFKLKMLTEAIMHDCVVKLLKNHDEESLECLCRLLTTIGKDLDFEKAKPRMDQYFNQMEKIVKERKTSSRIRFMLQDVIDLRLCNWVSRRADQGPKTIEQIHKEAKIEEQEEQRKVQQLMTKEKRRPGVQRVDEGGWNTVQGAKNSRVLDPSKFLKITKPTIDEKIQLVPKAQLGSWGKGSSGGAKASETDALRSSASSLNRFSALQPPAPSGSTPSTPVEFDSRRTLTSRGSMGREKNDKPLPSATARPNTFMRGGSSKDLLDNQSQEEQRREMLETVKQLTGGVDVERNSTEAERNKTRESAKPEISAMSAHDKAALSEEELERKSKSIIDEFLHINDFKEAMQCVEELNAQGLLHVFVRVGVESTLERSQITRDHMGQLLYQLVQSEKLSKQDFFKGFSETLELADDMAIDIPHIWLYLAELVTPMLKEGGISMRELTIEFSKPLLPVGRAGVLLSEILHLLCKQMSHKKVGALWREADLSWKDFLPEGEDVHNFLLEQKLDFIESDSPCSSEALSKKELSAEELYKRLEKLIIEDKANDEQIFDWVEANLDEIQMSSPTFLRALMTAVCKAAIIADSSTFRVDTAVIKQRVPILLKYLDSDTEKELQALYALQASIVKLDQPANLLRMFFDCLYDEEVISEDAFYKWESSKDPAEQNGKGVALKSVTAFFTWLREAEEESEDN
NELFE, P18615, UniProt P18615, whole entry: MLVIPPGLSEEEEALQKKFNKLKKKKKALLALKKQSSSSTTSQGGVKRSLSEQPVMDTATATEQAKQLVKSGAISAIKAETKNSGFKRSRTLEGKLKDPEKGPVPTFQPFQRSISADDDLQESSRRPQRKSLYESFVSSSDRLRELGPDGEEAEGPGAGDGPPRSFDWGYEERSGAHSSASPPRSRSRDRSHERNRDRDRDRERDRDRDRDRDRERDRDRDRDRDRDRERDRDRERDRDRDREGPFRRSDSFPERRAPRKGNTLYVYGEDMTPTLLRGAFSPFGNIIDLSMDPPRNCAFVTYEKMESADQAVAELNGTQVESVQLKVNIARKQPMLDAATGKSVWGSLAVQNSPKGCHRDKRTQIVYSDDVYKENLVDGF
PFN2, P35080, UniProt P35080, whole entry: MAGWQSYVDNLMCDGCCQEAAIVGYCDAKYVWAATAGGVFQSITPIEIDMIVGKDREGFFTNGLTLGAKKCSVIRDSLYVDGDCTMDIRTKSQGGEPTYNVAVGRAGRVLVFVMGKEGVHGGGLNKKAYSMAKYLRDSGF
SETD1A, O15047, UniProt O15047, whole entry: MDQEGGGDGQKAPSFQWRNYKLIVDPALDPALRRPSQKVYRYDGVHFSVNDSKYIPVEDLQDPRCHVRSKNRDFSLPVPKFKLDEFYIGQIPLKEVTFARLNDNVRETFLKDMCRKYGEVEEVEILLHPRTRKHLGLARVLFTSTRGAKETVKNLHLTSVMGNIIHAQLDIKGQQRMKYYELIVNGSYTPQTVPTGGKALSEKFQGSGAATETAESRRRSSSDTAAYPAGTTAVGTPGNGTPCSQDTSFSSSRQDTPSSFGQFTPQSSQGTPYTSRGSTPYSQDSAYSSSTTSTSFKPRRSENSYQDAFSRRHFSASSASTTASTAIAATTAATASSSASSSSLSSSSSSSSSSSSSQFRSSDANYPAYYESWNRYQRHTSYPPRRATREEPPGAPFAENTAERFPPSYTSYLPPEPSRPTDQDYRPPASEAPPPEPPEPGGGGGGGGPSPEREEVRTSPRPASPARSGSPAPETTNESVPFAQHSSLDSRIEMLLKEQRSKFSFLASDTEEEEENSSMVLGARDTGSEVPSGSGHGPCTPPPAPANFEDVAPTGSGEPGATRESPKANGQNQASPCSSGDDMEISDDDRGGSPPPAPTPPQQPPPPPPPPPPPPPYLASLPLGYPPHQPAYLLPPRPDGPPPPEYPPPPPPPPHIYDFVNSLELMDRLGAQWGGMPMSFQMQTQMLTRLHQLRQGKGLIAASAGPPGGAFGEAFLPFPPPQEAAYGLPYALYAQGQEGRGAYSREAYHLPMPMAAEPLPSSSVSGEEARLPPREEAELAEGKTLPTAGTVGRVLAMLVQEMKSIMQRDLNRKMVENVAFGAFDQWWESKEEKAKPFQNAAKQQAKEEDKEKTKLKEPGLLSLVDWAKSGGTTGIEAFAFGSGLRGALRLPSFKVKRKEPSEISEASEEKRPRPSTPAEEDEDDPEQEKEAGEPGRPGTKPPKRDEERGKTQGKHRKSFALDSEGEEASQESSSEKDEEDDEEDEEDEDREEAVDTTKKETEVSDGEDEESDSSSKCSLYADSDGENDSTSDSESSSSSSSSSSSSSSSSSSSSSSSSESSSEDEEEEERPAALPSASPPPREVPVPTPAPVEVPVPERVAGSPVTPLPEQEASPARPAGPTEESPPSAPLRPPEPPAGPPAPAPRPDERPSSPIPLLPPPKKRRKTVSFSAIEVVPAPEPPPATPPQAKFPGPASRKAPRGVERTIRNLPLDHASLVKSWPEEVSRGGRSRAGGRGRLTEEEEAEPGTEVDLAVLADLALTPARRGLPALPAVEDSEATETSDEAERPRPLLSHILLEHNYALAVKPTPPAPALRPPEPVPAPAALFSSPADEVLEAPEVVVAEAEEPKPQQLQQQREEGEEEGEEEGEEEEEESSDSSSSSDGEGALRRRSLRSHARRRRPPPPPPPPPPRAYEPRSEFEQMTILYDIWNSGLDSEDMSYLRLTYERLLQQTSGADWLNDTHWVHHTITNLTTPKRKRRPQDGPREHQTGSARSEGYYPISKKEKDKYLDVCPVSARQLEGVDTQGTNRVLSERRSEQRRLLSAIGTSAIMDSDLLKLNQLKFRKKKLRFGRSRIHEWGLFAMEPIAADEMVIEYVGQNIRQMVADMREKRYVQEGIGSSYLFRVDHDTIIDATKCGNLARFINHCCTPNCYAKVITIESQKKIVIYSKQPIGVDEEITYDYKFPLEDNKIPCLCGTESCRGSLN

Tests used:
Experiment in all cases: PRISMA enrichment of interactor (LFQ) in peptide spot vs all other peptide spots (log2 fold change); higher = stronger / more specific binding of the interactor to the peptide
ABCD3, P28288 = biological target: ABCD3, P28288
Method: (§1)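 PRISMA: 15-aa overlapping tiles (offset 8 aa) of 60 microproteins, plus SOS1/GLUT1 control peptides, were spot-synthesized on cellulose membranes in triplicate. Membranes were incubated with benzonase-treated HEK293T lysate, and bound proteins were identified by LC-MS/MS with LFQ. Enrichment is the log2 fold change of each protein in one spot versus all other spots. Only interactors passing the significance cutoff are listed.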

CIRBP, Q14011 = biological target: CIRBP, Q14011
Method: as §1

COX6C, P09669 = biological target: COX6C, P09669
Method: as §1

MSN, P26038 = biological target: MSN, P26038
Method: as §1

ORC2, Q13416 = biological target: ORC2, Q13416
Method: as §1

POU2F1, P14859 = biological target: POU2F1, P14859
Method: as §1

SNRPD2, P62316 = biological target: SNRPD2, P62316
Method: as §1

TBC1D10B, Q4KMP7 = biological target: TBC1D10B, Q4KMP7
Method: as §1

VPS52, Q8N1B4 = biological target: VPS52, Q8N1B4
Method: as §1

AP1B1, Q10567 = biological target: AP1B1, Q10567
Method: as §1

CCZ1, P86791 = biological target: CCZ1, P86791
Method: as §1

DDX49, Q9Y6V7 = biological target: DDX49, Q9Y6V7
Method: as §1

DVL2, O14641 = biological target: DVL2, O14641
Method: as §1

EEF1D, P29692 = biological target: EEF1D, P29692
Method: as §1

EIF4G3, O43432 = biological target: EIF4G3, O43432
Method: as §1

FANCD2, Q9BXW9 = biological target: FANCD2, Q9BXW9
Method: as §1

FASTKD5, Q7L8L6 = biological target: FASTKD5, Q7L8L6
Method: as §1

GNL2, Q13823 = biological target: GNL2, Q13823
Method: as §1

GPC4, O75487 = biological target: GPC4, O75487
Method: as §1

HDLBP, Q00341 = biological target: HDLBP, Q00341
Method: as §1

IDH3B, O43837 = biological target: IDH3B, O43837
Method: as §1

KIF5B, P33176 = biological target: KIF5B, P33176
Method: as §1

LARP7, Q4G0J3 = biological target: LARP7, Q4G0J3
Method: as §1

MAP7, Q14244 = biological target: MAP7, Q14244
Method: as §1

MCM6, Q14566 = biological target: MCM6, Q14566
Method: as §1

METTL15, A6NJ78 = biological target: METTL15, A6NJ78
Method: as §1

MRPL22, Q9NWU5 = biological target: MRPL22, Q9NWU5
Method: as §1

NELFE, P18615 = biological target: NELFE, P18615
Method: as §1

NKRF, O15226 = biological target: NKRF, O15226
Method: as §1

NMD3, Q96D46 = biological target: NMD3, Q96D46
Method: as §1

NUMA1, Q14980 = biological target: NUMA1, Q14980
Method: as §1

ORMDL1, Q9P0S3 = biological target: ORMDL1, Q9P0S3
Method: as §1

PFN2, P35080 = biological target: PFN2, P35080
Method: as §1

PHIP, Q8WWQ0 = biological target: PHIP, Q8WWQ0
Method: as §1

PNISR, Q8TF01 = biological target: PNISR, Q8TF01
Method: as §1

RIOK1, Q9BRS2 = biological target: RIOK1, Q9BRS2
Method: as §1

SAE1, Q9UBE0 = biological target: SAE1, Q9UBE0
Method: as §1

SEMG1, P04279 = biological target: SEMG1, P04279
Method: as §1

SETD1A, O15047 = biological target: SETD1A, O15047
Method: as §1

SLC35B2, Q8TB61 = biological target: SLC35B2, Q8TB61
Method: as §1

SNW1, Q13573 = biological target: SNW1, Q13573
Method: as §1

TNRC6A, Q8NDV7 = biological target: TNRC6A, Q8NDV7
Method: as §1

UBAP2, Q5T6F2 = biological target: UBAP2, Q5T6F2
Method: as §1

YWHAH, Q04917 = biological target: YWHAH, Q04917
Method: as §1

ZMPSTE24, O75844 = biological target: ZMPSTE24, O75844
Method: as §1

ZMYM4, Q5VZL5 = biological target: ZMYM4, Q5VZL5
Method: as §1

hCG_1984214 = biological target: hCG_1984214
Method: as §1

LKFTSMRGLECSLGR [SNHG8]
PRISMA enrichment of interactor (log2) (ABCD3, P28288): 5.55 | PRISMA enrichment of interactor (log2) (CIRBP, Q14011): 5.09 | PRISMA enrichment of interactor (log2) (COX6C, P09669): 4.4 | PRISMA enrichment of interactor (log2) (MSN, P26038): 5.47 | PRISMA enrichment of interactor (log2) (ORC2, Q13416): 5.36 | PRISMA enrichment of interactor (log2) (POU2F1, P14859): 3.88 | PRISMA enrichment of interactor (log2) (SNRPD2, P62316): 5.04 | PRISMA enrichment of interactor (log2) (TBC1D10B, Q4KMP7): 6.02 | PRISMA enrichment of interactor (log2) (VPS52, Q8N1B4): 7.7

CGTRHPSTSTSAPNT [THAP7]
PRISMA enrichment of interactor (log2) (ABCD3, P28288): 4.65 | PRISMA enrichment of interactor (log2) (AP1B1, Q10567): 4.96 | PRISMA enrichment of interactor (log2) (CCZ1, P86791): 7.93 | PRISMA enrichment of interactor (log2) (DDX49, Q9Y6V7): 5.43 | PRISMA enrichment of interactor (log2) (DVL2, O14641): 4.25 | PRISMA enrichment of interactor (log2) (EEF1D, P29692): 4.69 | PRISMA enrichment of interactor (log2) (EIF4G3, O43432): 5.39 | PRISMA enrichment of interactor (log2) (FANCD2, Q9BXW9): 4.89 | PRISMA enrichment of interactor (log2) (FASTKD5, Q7L8L6): 4.82 | PRISMA enrichment of interactor (log2) (GNL2, Q13823): 5.79 | PRISMA enrichment of interactor (log2) (GPC4, O75487): 4.91 | PRISMA enrichment of interactor (log2) (HDLBP, Q00341): 4.66 | PRISMA enrichment of interactor (log2) (IDH3B, O43837): 6.69 | PRISMA enrichment of interactor (log2) (KIF5B, P33176): 6.3 | PRISMA enrichment of interactor (log2) (LARP7, Q4G0J3): 4.57 | PRISMA enrichment of interactor (log2) (MAP7, Q14244): 5.42 | PRISMA enrichment of interactor (log2) (MCM6, Q14566): 4.85 | PRISMA enrichment of interactor (log2) (METTL15, A6NJ78): 4.74 | PRISMA enrichment of interactor (log2) (MRPL22, Q9NWU5): 6.94 | PRISMA enrichment of interactor (log2) (NELFE, P18615): 4.17 | PRISMA enrichment of interactor (log2) (NKRF, O15226): 4.61 | PRISMA enrichment of interactor (log2) (NMD3, Q96D46): 7.38 | PRISMA enrichment of interactor (log2) (NUMA1, Q14980): 5.52 | PRISMA enrichment of interactor (log2) (ORMDL1, Q9P0S3): 5.95 | PRISMA enrichment of interactor (log2) (PFN2, P35080): 4.38 | PRISMA enrichment of interactor (log2) (PHIP, Q8WWQ0): 4.22 | PRISMA enrichment of interactor (log2) (PNISR, Q8TF01): 5.04 | PRISMA enrichment of interactor (log2) (RIOK1, Q9BRS2): 4.54 | PRISMA enrichment of interactor (log2) (SAE1, Q9UBE0): 4.32 | PRISMA enrichment of interactor (log2) (SEMG1, P04279): 6.97 | PRISMA enrichment of interactor (log2) (SETD1A, O15047): 4.6 | PRISMA enrichment of interactor (log2) (SLC35B2, Q8TB61): 4.23 | PRISMA enrichment of interactor (log2) (SNW1, Q13573): 5.66 | PRISMA enrichment of interactor (log2) (TNRC6A, Q8NDV7): 4.19 | PRISMA enrichment of interactor (log2) (UBAP2, Q5T6F2): 4.91 | PRISMA enrichment of interactor (log2) (YWHAH, Q04917): 4.24 | PRISMA enrichment of interactor (log2) (ZMPSTE24, O75844): 6.38 | PRISMA enrichment of interactor (log2) (ZMYM4, Q5VZL5): 3.94 | PRISMA enrichment of interactor (log2) (hCG_1984214): 4.97
